The source of these data is PMC5656746.

Chains of the proteins cited; added tags and fusions are not shown. Residues count along the entry.
UniProt P78536, residues 215-824: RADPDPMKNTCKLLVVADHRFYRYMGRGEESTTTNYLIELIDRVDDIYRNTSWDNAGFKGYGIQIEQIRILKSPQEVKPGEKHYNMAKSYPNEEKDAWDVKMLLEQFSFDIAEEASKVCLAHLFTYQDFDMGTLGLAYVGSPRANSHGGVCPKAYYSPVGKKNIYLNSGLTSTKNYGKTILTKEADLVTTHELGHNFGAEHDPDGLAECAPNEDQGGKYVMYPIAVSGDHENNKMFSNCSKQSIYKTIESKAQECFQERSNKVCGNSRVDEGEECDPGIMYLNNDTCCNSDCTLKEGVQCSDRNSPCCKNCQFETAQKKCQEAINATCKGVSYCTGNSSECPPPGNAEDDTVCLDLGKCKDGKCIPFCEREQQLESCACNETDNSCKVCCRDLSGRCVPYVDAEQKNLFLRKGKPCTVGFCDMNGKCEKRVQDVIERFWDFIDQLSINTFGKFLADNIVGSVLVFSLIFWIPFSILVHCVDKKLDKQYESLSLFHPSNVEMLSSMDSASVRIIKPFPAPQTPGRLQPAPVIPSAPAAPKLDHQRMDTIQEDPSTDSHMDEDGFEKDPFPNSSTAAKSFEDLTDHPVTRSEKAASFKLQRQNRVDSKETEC

The assay concerns the target T1, HA-tagged mouse iRhom2 (wild type) (mouse) (UniProt Q80WQ6).
T1 sequence: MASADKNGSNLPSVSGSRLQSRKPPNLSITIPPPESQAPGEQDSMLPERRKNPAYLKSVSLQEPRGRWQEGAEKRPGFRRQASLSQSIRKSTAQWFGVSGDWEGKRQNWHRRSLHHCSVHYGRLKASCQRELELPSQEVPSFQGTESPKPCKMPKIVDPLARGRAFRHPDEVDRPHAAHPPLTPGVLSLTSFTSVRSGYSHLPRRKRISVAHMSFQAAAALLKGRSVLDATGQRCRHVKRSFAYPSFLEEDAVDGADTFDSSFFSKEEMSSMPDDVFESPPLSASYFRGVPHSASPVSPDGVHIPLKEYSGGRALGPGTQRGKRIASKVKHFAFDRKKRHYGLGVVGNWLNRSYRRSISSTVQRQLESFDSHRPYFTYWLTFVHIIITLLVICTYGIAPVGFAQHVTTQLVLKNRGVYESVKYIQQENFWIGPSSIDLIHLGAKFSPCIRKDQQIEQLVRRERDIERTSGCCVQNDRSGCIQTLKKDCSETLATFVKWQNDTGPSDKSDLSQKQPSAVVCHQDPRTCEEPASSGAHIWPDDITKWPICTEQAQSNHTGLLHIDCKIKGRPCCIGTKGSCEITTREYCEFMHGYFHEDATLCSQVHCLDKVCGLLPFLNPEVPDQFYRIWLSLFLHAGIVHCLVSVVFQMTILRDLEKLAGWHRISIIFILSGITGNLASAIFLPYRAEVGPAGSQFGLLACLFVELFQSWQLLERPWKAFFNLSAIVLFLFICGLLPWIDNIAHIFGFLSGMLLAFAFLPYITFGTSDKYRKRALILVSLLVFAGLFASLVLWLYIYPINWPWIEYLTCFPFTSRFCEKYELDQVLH
The assay can be described thus: co-IP; α-HA immunoprecipitates from HEK293ET cells expressing iRhom2-HA constructs, with or without PMA (30 min); TACE detected by blot, densitometry.

These are yes or no findings as the source states them, for the method shown. In cells and extracts the contact can be indirect. Some results given as binding are weak or reduced against the parent protein; the word gives no strength. Tags and fused reporters may be left off the sequences shown.

Turning to “TACE (TNF-α-converting enzyme), mature form, found in α-HA immunoprecipitates from HEK293ET cells (from UniProt P78536 215-824)”, the binding entry was “binds”.
